Legend:
[1] = target: T1, FLJ20589 clone-derived protein (human hippocalcin-like protein 1, VILIP-3) (Homo sapiens, UniProt P37235); test: SEC/MS interaction analysis (size exclusion spin column and mass analysis) with FLJ20589 clone-derived protein; assay type: binding
T1 construct: A human full-length cDNA clone was expressed as a protein with an N-terminal His tag; His tag (N); made in house; host or cells: Escherichia coli BL21star(DE3)pLysS (pDEST17 Gateway expression plasmid)

[2] = target: T2, FLJ39196 clone-derived protein (human neurocalcin δ) (Homo sapiens, UniProt P61601); test: SEC/MS interaction analysis (size exclusion spin column and mass analysis) with FLJ39196 clone-derived protein; assay type: binding
T2 construct: A human full-length cDNA clone was expressed as a protein with an N-terminal His tag; His tag (N); made in house; host or cells: Escherichia coli BL21star(DE3)pLysS (pDEST17 Gateway expression plasmid)
Excerpt: To analyze the interactions between commonly used drugs and proteins expressed from human full-length cDNA clones while keeping both the proteins and the compounds in non-modified, non-immobilized state, size exclusion chromatography (SEC) and mass analysis were used in combination (FIGS. 1, 2). The specific procedures are shown below.
The compound-protein mixture prepared in step 1 was subjected to chromatography using an SEC column, the compound and the protein were separated by SEC, and the compound that interacted with the bound compound or protein contained in the protein fraction was analyzed using a mass analyzer.
Protein concentrations were measured using BCA Protein Assay (PIERCE), in consideration of the purity calculated by SDS-PAGE.
Mass analysis was performed using LCQ DECA XP (Thermoelectron) or Q-TOFmicro (Micromass), equipped with an ESI probe. The LC pump used was Agilent 1100 (Yokogawa Analytical Systems), and the autosampler used was HTC-PAL (CTC Analytics) equipped with a cooling stacker.
In the SEC method using 384-well spin columns, Unifilter 100 (Whatman), packed with 10 μL (dry volume) of Bio-Gel P6 (BIO-RAD) and swollen with milliQ water, was used as the SEC column. 13.3 μL of a protein-free reference standard or a 25 μM protein standard and 0.7 μL of a multiplied liquid comprising 25 μM of each pharmaceutical compound (5% DMSO aqueous solution) were mixed; 9 μL of this mixture was aliquoted into the SEC spin columns. The SEC spin column was mounted on an acetonitrile-aliquoted 384-well U-bottom plate and centrifuged; the SEC spin column filtrate, which is a protein fraction, was retrieved in 50% acetonitrile. The protein precipitate produced by the acetonitrile was removed via centrifugation and filtration for deproteinization; the resulting filtrate was concentrated by centrifugation and re-dissolved in 10 μL of 50% methanol to obtain a mass analysis sample. The mobile phase supplied to the mass analyzer was 0.1% formic acid/50% methanol solution in the positive ion mode, and 0.1% ammonia/50% methanol solution in the negative ion mode; these mobile phases were used at a flow rate of 40 μL/min. 2-μL of mass analysis samples were injected using an autosampler at 2-minute intervals; the mass spectral intensity of the compound was measured to obtain the spectral intensity of the pharmaceutical compound contained in the SEC spin column filtrate (protein fraction eluted from SEC).

[3] = protein 0 μM (protein-free reference), compound 1 μM
[4] = protein 0 μM (protein-free reference), compound 10 μM
[5] = protein 0 μM (protein-free reference), compound 100 μM
[6] = protein 0 μM (protein-free reference), compound 250 μM
[7] = protein 23.75 μM, compound 1 μM
[8] = protein 23.75 μM, compound 10 μM
[9] = protein 23.75 μM, compound 100 μM
[10] = protein 23.75 μM, compound 250 μM
[11] = protein 47.5 μM, compound 10 μM
[12] = protein 47.5 μM, compound 100 μM
[13] = protein 47.5 μM, compound 250 μM

Structure (SMILES): CC(C)(C)CC(C)(C)c1ccc(OCCOCC[N+](C)(C)Cc2ccccc2)cc1 [Benzethonium]
- spectral intensity of the compound in the SEC spin column filtrate (protein fraction) [1, 3]: 681042
- spectral intensity of the compound in the SEC spin column filtrate (protein fraction) [1, 4]: 536408
- spectral intensity of the compound in the SEC spin column filtrate (protein fraction) [1, 5]: 1019183
- spectral intensity of the compound in the SEC spin column filtrate (protein fraction) [1, 6]: 1894576
- spectral intensity of the compound in the SEC spin column filtrate (protein fraction) [1, 7]: 567621
- spectral intensity of the compound in the SEC spin column filtrate (protein fraction) [1, 8]: 13777320
- spectral intensity of the compound in the SEC spin column filtrate (protein fraction) [1, 9]: 732075554
- spectral intensity of the compound in the SEC spin column filtrate (protein fraction) [1, 10]: 363052655
- spectral intensity of the compound in the SEC spin column filtrate (protein fraction) ([1]; protein 47.5 μM, compound 1 μM): 179741
- spectral intensity of the compound in the SEC spin column filtrate (protein fraction) [1, 11]: 1125025
- spectral intensity of the compound in the SEC spin column filtrate (protein fraction) [1, 12]: 368271326
- spectral intensity of the compound in the SEC spin column filtrate (protein fraction) [1, 13]: 1844957985
- spectral intensity of the compound in the SEC spin column filtrate (protein fraction) [2, 3]: 7744717
- spectral intensity of the compound in the SEC spin column filtrate (protein fraction) [2, 4]: 5781630
- spectral intensity of the compound in the SEC spin column filtrate (protein fraction) [2, 5]: 110985750
- spectral intensity of the compound in the SEC spin column filtrate (protein fraction) [2, 6]: 3418189873
- spectral intensity of the compound in the SEC spin column filtrate (protein fraction) [2, 7]: 7361705
- spectral intensity of the compound in the SEC spin column filtrate (protein fraction) [2, 8]: 346972055
- spectral intensity of the compound in the SEC spin column filtrate (protein fraction) [2, 9]: 5864609237
- spectral intensity of the compound in the SEC spin column filtrate (protein fraction) [2, 10]: 6839519322
- spectral intensity of the compound in the SEC spin column filtrate (protein fraction) ([2]; protein 47.5 μM, compound 1 μM): 18097692
- spectral intensity of the compound in the SEC spin column filtrate (protein fraction) [2, 11]: 724595729
- spectral intensity of the compound in the SEC spin column filtrate (protein fraction) [2, 12]: 9268734340
- spectral intensity of the compound in the SEC spin column filtrate (protein fraction) [2, 13]: 14536894458
